Laboratory results from publication PMC5660723, “Histone Deacetylase Inhibitors Are Protective in Acute but Not in Chronic Models of Ototoxicity” (Frontiers in Cellular Neuroscience, 2017).

Tested on: outer hair cells (OHCs) of p3 murine organ of Corti explants
Assay: Protection against gentamicin-induced OHC loss in murine organ of Corti explants
Type: cell-based, CBA/J mice
Source text: The culture procedures have been described in detail (Chen et al., [2009]). In brief, postnatal day 3 (p3) CBA/J pups were euthanized after antisepsis using 70% ethanol. Inner ears were extracted from surrounding tissue and immersed in cold Hank’s balanced salt solution. The lateral wall tissues (stria vascularis and spiral ligament) and the auditory nerve bundle were micro-dissected from the organ of Corti. The explants were placed onto a prepared culture dish containing a 15-μL polymerized drop of rat tail collagen in 1 mL of culture medium consisting of Basal Medium Eagle, 1% serum-free supplement (Invitrogen, Carlsbad, CA, USA), 1% bovine serum albumin, 5 mg/mL glucose, and 10 U/mL penicillin G. After 4 h of incubation (37°C, 5% CO2), an additional 1 mL of medium was added to submerge the explants.
The medium was then exchanged for new medium containing a final concentration of 4.5 μM GM with or without various concentrations of the HDAC inhibitors and incubated for 72 h. […]
Explants were fixed with 4% paraformaldehyde overnight at 4°C and permeabilized for 30 min with 3% Triton X-100 in phosphate-buffered saline (PBS) at room temperature (22–24°C). […] Cell populations were assessed on a Leitz Orthoplan upright microscope equipped for epifluorescence, using a 50× oil-immersion objective. […] Each successive 0.19-mm field was evaluated for the absence of OHCs beginning from the apex and moving down the organ of Corti to the base. The percentage of OHC loss was calculated.
After having established the safe concentration range for the HDAC inhibitors, we explored their efficacy as protective agents against GM-induced OHC loss. […] From the assessment of safe doses and the median effective (protective) doses (ED50) of the three HDAC inhibitors, we calculated the therapeutic index (TI = TD50/ED50) to be highest (safest) for belinostat and lowest for panobinostat (for detailed values see Table 2).

SMILES	TI (TD50/ED50)
O=C(CCCCCCC(=O)Nc1ccccc1)NO [SAHA, vorinostat]	9.2
O=C(/C=C/c1cccc(S(=O)(=O)Nc2ccccc2)c1)NO [belinostat]	70
Cc1[nH]c2ccccc2c1CCNCc1ccc(/C=C/C(=O)NO)cc1 [panobinostat]	3.9
